Some entries share one result that the patent states for a list of compounds.
Test system: H. elegans larvae
Assay: inhibition of larvae settlement of H. elegans
Type: in vivo
Conditions: ratio >10 regarded as non-toxic, listed as piperine
Description: The four amide compounds were tested for their abilities to inhibit larvae settlement of the H. elegans, using an experimental model of inhibition of larvae settlement H. elegans (Zhang Y., Xiao K., Qian P. Y., et al. 2D gel-based multiplexed proteomic analysis during larval development and metamorphosis of the biofouling polychaete tubeworm Hydroides elegans. Journal of proteome research. 2010, 9(9), 4851-4860). Adults of H. elegans were collected from Yung Shue O, Hong Kong (22° 25′N, 114° 16′E). The H. elegans larvae were reared according to Qian and Pechenik (Bryan P. J., Qian P. Y., Kreider J. L.; Chia F. S. Induction of larval settlement and metamorphosis by pharmacological and conspecific associated compounds in the serpulid polychaete Hydroides elegans. Marine ecology progress series. 1997, 146: 81-90; Qiu, J. W.; Qian, P. Y. Combined effects of salinity, temperature and food on early development of the polychaete Hydroides elegans. Marine ecology progress series. 1997, 152: 79-88). Briefly, they were reared for 4 days until they reach the settlement-competent stage on a diet of chrysophyte Isochrysis galbana under an aerated condition and a 15 h light/9 h dark photoperied at 25° C. […] The percentage of larvae settlement and larvae mortality was determined by counting the settled, live individuals under a dissecting microscope. […]

**Q.** For `O=C(/C=C/C=C/c1ccc2c(c1)OCO2)N1CCCCC1` [Compound 2, 1-[1-oxo-5-(3′,4′-methylenedioxyphenyl)-2,4-pentadienoyl]-piperidine], which LC50/EC50 is on record?
**A.** higher than 10
